The source of these data is article doi:10.1101/491779.

Chains of the proteins cited; added tags and fusions are not shown.
UniProt Q13263: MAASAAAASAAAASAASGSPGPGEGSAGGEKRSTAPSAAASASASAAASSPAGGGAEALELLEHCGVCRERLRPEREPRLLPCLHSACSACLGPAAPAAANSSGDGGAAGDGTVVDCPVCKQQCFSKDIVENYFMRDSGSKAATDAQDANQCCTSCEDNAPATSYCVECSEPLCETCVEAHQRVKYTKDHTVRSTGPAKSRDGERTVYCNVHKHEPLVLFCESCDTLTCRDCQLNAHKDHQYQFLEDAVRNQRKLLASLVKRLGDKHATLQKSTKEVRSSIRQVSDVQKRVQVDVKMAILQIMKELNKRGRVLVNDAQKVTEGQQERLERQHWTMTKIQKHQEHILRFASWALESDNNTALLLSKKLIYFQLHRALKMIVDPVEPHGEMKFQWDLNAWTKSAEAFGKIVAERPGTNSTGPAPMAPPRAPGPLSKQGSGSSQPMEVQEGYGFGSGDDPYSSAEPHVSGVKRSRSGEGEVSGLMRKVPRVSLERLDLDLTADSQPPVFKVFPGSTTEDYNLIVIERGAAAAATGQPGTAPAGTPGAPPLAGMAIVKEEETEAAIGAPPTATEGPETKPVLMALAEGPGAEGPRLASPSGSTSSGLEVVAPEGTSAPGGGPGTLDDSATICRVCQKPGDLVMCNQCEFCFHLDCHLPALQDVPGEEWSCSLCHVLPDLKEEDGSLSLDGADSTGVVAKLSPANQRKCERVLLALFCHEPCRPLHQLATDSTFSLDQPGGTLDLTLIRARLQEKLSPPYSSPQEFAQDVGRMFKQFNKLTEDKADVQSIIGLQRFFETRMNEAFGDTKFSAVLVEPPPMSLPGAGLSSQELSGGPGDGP
UniProt P20700: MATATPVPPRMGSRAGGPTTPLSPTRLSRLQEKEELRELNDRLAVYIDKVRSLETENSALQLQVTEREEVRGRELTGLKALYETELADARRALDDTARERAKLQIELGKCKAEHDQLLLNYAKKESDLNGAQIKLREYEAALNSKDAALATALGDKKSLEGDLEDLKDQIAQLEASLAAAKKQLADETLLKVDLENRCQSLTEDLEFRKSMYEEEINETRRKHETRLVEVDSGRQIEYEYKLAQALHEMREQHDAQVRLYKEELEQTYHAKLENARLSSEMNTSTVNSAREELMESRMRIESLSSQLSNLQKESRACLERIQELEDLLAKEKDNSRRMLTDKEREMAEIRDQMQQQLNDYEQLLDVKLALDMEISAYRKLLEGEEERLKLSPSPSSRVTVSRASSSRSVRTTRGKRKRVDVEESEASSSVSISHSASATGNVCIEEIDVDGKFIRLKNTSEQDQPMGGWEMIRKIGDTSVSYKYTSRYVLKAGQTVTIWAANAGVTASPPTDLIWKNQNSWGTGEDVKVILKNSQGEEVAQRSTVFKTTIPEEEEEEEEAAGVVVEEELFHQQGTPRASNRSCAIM

No constants are given. Whether binding was seen depends on the method and setting. Binding seen in cells or lysates may run through a third protein. A yes stands for co-enrichment or nearness to the bait. Other partners may have been found. Sequences can lack the tags named with a protein.

The target in the experiment is T1, FLAG-HA-tagged full length C11orf46 (human) (UniProt Q8N8R7).
T1 sequence: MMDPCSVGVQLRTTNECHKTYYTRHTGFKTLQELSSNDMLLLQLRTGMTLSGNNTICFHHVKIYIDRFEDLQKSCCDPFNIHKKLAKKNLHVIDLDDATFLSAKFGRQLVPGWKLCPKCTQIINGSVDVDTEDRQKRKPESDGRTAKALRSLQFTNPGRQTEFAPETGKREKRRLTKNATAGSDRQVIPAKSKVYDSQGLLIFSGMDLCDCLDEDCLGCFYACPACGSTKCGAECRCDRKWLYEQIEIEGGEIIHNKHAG
Briefly: affinity purification with mass spectrometry.

For “KAP1 (endogenous, HEK293) (from UniProt Q13263 1-835)”, the binding result is recorded as “binds”.

In the case of “LMNB1 (endogenous, HEK293) (from UniProt P20700 1-586)”, the binding result is on record as “binds”.

B1: LAP2A (endogenous, HEK293) (protein, UniProt P42166 1-694)
chain: MPEFLEDPSVLTKDKLKSELVANNVTLPAGEQRKDVYVQLYLQHLTARNRPPLPAGTNSKGPPDFSSDEEREPTPVLGSGAAAAGRSRAAVGRKATKKTDKPRQEDKDDLDVTELTNEDLLDQLVKYGVNPGPIVGTTRKLYEKKLLKLREQGTESRSSTPLPTISSSAENTRQNGSNDSDRYSDNEEGKKKEHKKVKSTRDIVPFSELGTTPSGGGFFQGISFPEISTRPPLGSTELQAAKKVHTSKGDLPREPLVATNLPGRGQLQKLASERNLFISCKSSHDRCLEKSSSSSSQPEHSAMLVSTAASPSLIKETTTGYYKDIVENICGREKSGIQPLCPERSHISDQSPLSSKRKALEESESSQLISPPLAQAIRDYVNSLLVQGGVGSLPGTSNSMPPLDVENIQKRIDQSKFQETEFLSPPRKVPRLSEKSVEERDSGSFVAFQNIPGSELMSSFAKTVVSHSLTTLGLEVAKQSQHDKIDASELSFPFHESILKVIEEEWQQVDRQLPSLACKYPVSSREATQILSVPKVDDEILGFISEATPLGGIQAASTESCNQQLDLALCRAYEAAASALQIATHTAFVAKAMQADISQAAQILSSDPSRTHQALGILSKTYDAASYICEAAFDEVKMAAHTMGNATVGRRYLWLKDCKINLASKNKLASTPFKGGTLFGGEVCKVIKKRGNKH
On to B1, for which the binding entry is “binds”.

B2: MCAF1 (endogenous, HEK293) (protein, UniProt Q6VMQ6 1-1270)
chain: MDSLEEPQKKVFKARKTMRVSDRQQLEAVYKVKEELLKTDVKLLNGNHENGDLDPTSPLENMDYIKDKEEVNGIEEICFDPEGSKAEWKETPCILSVNVKNKQDDDLNCEPLSPHNITPEPVSKLPAEPVSGDPAPGDLDAGDPASGVLASGDSTSGDPTSSEPSSSDAASGDATSGDAPSGDVSPGDATSGDATADDLSSGDPTSSDPIPGEPVPVEPISGDCAADDIASSEITSVDLASGAPASTDPASDDLASGDLSSSELASDDLATGELASDELTSESTFDRTFEPKSVPVCEPVPEIDNIEPSSNKDDDFLEKNGADEKLEQIQSKDSLDEKNKADNNIDANEETLETDDTTICSDRPPENEKKVEEDIITELALGEDAISSSMEIDQGEKNEDETSADLVETINENVIEDNKSENILENTDSMETDEIIPILEKLAPSEDELTCFSKTSLLPIDETNPDLEEKMESSFGSPSKQESSESLPKEAFLVLSDEEDISGEKDESEVISQNETCSPAEVESNEKDNKPEEEEQVIHEDDERPSEKNEFSRRKRSKSEDMDNVQSKRRRYMEEEYEAEFQVKITAKGDINQKLQKVIQWLLEEKLCALQCAVFDKTLAELKTRVEKIECNKRHKTVLTELQAKIARLTKRFEAAKEDLKKRHEHPPNPPVSPGKTVNDVNSNNNMSYRNAGTVRQMLESKRNVSESAPPSFQTPVNTVSSTNLVTPPAVVSSQPKLQTPVTSGSLTATSVLPAPNTATVVATTQVPSGNPQPTISLQPLPVILHVPVAVSSQPQLLQSHPGTLVTNQPSGNVEFISVQSPPTVSGLTKNPVSLPSLPNPTKPNNVPSVPSPSIQRNPTASAAPLGTTLAVQAVPTAHSIVQATRTSLPTVGPSGLYSPSTNRGPIQMKIPISAFSTSSAAEQNSNTTPRIENQTNKTIDASVSKKAADSTSQCGKATGSDSSGVIDLTMDDEESGASQDPKKLNHTPVSTMSSSQPVSRPLQPIQPAPPLQPSGVPTSGPSQTTIHLLPTAPTTVNVTHRPVTQVTTRLPVPRAPANHQVVYTTLPAPPAQAPLRGTVMQAPAVRQVNPQNSVTVRVPQTTTYVVNNGLTLGSTGPQLTVHHRPPQVHTEPPRPVHPAPLPEAPQPQRLPPEAASTSLPQKPHLKLARVQSQNGIVLSWSVLEVDRSCATVDSYHLYAYHEEPSATVPSQWKKIGEVKALPLPMACTLTQFVSGSKYYFAVRAKDIYGRFGPFCDPQSTDVISSTQSS
As to B2, the binding entry is “binds”.
